Laboratory results: PubChem BioAssay AID720505 (Drosophila RNAi Screening Center, 2013)
The deposit covers about 20,000 reagents; below is an unselected part of those that have a named target and a result. In the full data, about 2,100 (10%) got an active call. 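Raw plate signals without normalisation; calls rest on control-based scores that were not deposited; replicate 2 separates called from uncalled poorly.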 The numbers tell different reagents against one gene apart. A plus sign joins genes that one reagent is predicted to hit. The record does not give: the amount of reagent, the time to read-out.

- Aim: 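Knock-downs that reduce calcium influx once internal stores are emptied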 (primary screen)
- Cells: Drosophila S2R+ cells
- Reagent: long dsRNA against Drosophila genes
- Treatment: thapsigargin (2 µM) in calcium-free buffer to empty internal stores, then 2 mM calcium added back
- Detection: 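Stores emptied by 2 µM thapsigargin without calcium, then 2 mM calcium re-added; fluo-4 fluorescence followed by FLIPR in 384-well plates, per-well averaged endpoint, raw; two screen passes, some wells retested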
- Reading the numbers: calcium signal and retest calcium signal: higher = more calcium entry after store depletion
- Call rule: 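Knock-downs counted as hits when calcium entry dropped relative to STIM1 positive and Rho1 negative controls present on each plate; roughly 1500 genes called, with reductions of differing size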
- Calls: active = called as lowering calcium entry; inactive = not called

no.	predicted target	dsRNA no.	calcium signal, replicate 1	calcium signal, replicate 2	retest calcium signal, replicate 1	retest calcium signal, replicate 2	call
1	Icmt	1	144	71.2			inactive
2	CG8646	1	98.9	155			inactive
3	CG5895	1	99.5	157			inactive
4	Ski6	1	80.4	101			active
5	CG10949	1	95.1	83.2			inactive
6	RabGGTa	1	106	109			inactive
7	CG18542 + CG32939	1	111	111			inactive
8	Ptth	1	94.8	126			inactive
9	Cda4	1	212	91.8			inactive
10	Cda4	2	76.4	115			active
11	Cda4	3	178	111			inactive
12	CG14316	1	155	139			inactive
13	Cpr65Aw	1					active
14	comm3	1	82.1	154			inactive
15	comm3	2	92.3	179			inactive
16	comm3	3	128	127			inactive
17	GstT2	1	138	135			inactive
18	CG33095	1	203	157			inactive
19	IFT54	1	97.3	125			inactive
20	TM9SF4	1	93.4	110			inactive
21	CG12239	1	152	86.9			inactive
22	CG41020 (retired record)	1	104	12030			inactive
23	GstD11	1	188	178			inactive
24	CG30394	1	132	122			inactive
25	CG30394	2	153	127			inactive
26	CG14851	1	90.9	110			inactive
27	CG14851	2	148	121			inactive
28	CG15390	1	214	172			inactive
29	CG17242	1	131	161			inactive
30	Dyro	1	63.9	105			active
31	CG13481	1	86.4	128			inactive
32	Tace	1	122	103			inactive
33	Rtca	1	116	160			inactive
34	Arp10	1	119	113			inactive
35	rdgA	1	64.5	219			active
36	rdgA	2	66	205			active
37	rdgA	3	147	165			inactive
38	Orp8	1	134	136	8387	195	inactive
39	Orp8	2	186	222			inactive
40	mAcon1	1	160	100			inactive
41	NUCB1	1	96.8	183			inactive
42	Coq6	1	166	280			inactive
43	Cap-D3 + tomb	1	80.2	125			inactive
44	Tom70	1	88.8	134	116	120	inactive
45	Naa20B	1	128	73.1			inactive
46	COX2 (retired record)	1	180	81.6			inactive
47	otp	1	162	105			inactive
48	otp	2	188	116			inactive
49	CG30095	1	121	127			inactive
50	dysc	1	133	83.6	9048	150	inactive
51	dysc	2	120	77.2			inactive
52	dysc	3	98.9	206			inactive
53	dysc	4	115	232			inactive
54	dysc	5	97.6	91.5			inactive
55	dysc	6	110	145			inactive
56	GstE5	1	189	168			inactive

Look-ups from the list:
Under “call”, NUCB1 reads inactive
Value for RabGGTa under “calcium signal, replicate 2”: 109
For “calcium signal, replicate 1”, CG18542 + CG32939 shows 111
CG33095, calcium signal, replicate 2 → 157
Result for rdgA #3 under “calcium signal, replicate 2”: 165
